PubChem BioAssay AID1259308, NCATS – 2017

Test: 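Genes whose loss raises luciferase production in HEK293 cells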 (primary screen)
Cells: human HEK293 embryonic kidney cells stably expressing firefly luciferase (HEK-CMV-Luc2-Hygro)
Reagents: single siRNA against human genes, 0.8 pmol siRNA per well
Duration: 72 h
Measurement: 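Reporter luminescence and viable-cell signal on separate replicate plates, given as percent of non-targeting control and median/MAD z-scores, plus per-cell luciferase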
Reading the numbers: total luciferase, z-score and total luciferase, % of control: higher = more reporter protein produced; luciferase per cell, z-score: higher = more reporter output per viable cell; viable cells, % of control: higher = more viable cells
Call rule: 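Active when the median/MAD z-score for overall luciferase is greater than 3; a gene was taken forward for validation with new siRNAs if at least two of its three siRNAs passed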
Meaning of the calls: active = raised luciferase; inactive = no rise
In all, the deposit lists about 59,000 reagents; this is a part drawn at random. About 1,510 of all reagents (2.6%) count as active. 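Calls use total luciferase alone and ignore viability, so some active siRNAs may act by altering cell number.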 Unmarked entries are inactive. The numbers tell different reagents against one gene apart.

Target gene	reagent no.	total luciferase, z-score	total luciferase, % of control	luciferase per cell, z-score	viable cells, % of control
AFF4	1	-0.126	79.4	1.21	64.5
AFF4	2	-1.34	55.1	-1.39	88.8
AFF4	3	0.245	86.8	0.38	87.7
PIGZ	1	0.456	91	0.105	98.9
PIGZ	2	2.97	141	1.88	96
PIGZ	3	-0.618	69.6	-0.195	81.9
RRH	1	-0.687	68.2	0.601	65.1
RRH	2	-0.239	77.1	-0.498	98.3
RRH	3	0.0712	83.3	-0.309	101
ONECUT1	1	0.0283	82.4	0.956	71.6
ONECUT1	2	0.138	84.6	-0.106	97.2
ONECUT1	3	2.52	132	1.76	92.9
PRAF2	1	0.635	94.5	3.2	45.5
PRAF2	2	1.42	110	1.52	82.5
PRAF2	3	0.593	93.7	0.338	95.8
MTMR14	1	-0.0385	81.1	0.133	87.5
MTMR14	2	0.0414	82.7	-0.396	103
MTMR14	3	-0.626	69.4	-1.42	113
MCRIP2	1	-0.484	72.3	-0.424	90.3
MCRIP2	2	-0.153	78.8	-0.152	91.7
MCRIP2	3	-0.506	71.8	-1.12	108
SPATA31D5P	1	1.1	104	0.745	95.3
SPATA31D5P	2	-1.61	50	-1.5	82.8
SPATA31D5P	3	1.4	110	1.31	86.9
NOL9	1	1.43	110	1.14	91.2
NOL9	2	0.11	84.1	-0.415	105
NOL9	3	0.51	92	-0.0184	103
STX17	1	-1.29	56.2	-1.2	86.1
STX17	2	-1.23	57.4	-1.21	88.3
STX17	3	-1.31	55.9	-0.78	76.7
PLEKHH2	1	0.469	91.2	0.553	88.1
PLEKHH2	2	-2.52	31.8	-1.83	57.6
PLEKHH2	3	0.331	88.5	0.0964	96.4
PDP1	1	-1.29	56.2	-0.66	74.7
PDP1	2	-0.799	66	-0.984	95.6
PDP1	3	2.01	122	0.248	128
IFT70B	1	0.298	87.8	-0.048	99.4
IFT70B	2	0.706	95.9	0.831	86.1
IFT70B	3	0.68	95.4	0.69	88.9
TEKT4	1	1.6	114	0.965	98.6
TEKT4	2	0.193	85.7	-0.172	100
TEKT4	3	1.43	110	0.324	113
EID2B	1	0.149	84.8	-0.204	100
EID2B	2	-0.503	71.9	-0.622	94.6
EID2B	3	-0.828	65.4	-1.48	108
RAB3A	1	-1.26	56.8	-1.14	85.6
RAB3A	2	0.283	87.5	-0.746	119
RAB3A	3	-0.529	71.4	-0.879	101
ZNF557	1	-0.33	75.3	-0.0757	85.9
ZNF557	2	0.0342	82.6	0.0393	91.3
ZNF557	3	-1.58	50.4	-0.34	61.6
DDX50	1	-0.976	62.5	-1.5	104
DDX50	2	-0.456	72.8	0.417	72.9
DDX50	3	-0.481	72.3	-0.693	97
STEEP1	1	1.76	117	0.856	104
STEEP1	2	-0.708	67.8	-0.755	92.4
STEEP1	3	0.381	89.5	0.303	92.3

6 entries from above in another layout:
RRH #1 → total luciferase, z-score = -0.687; total luciferase, % of control = 68.2; luciferase per cell, z-score = 0.601; viable cells, % of control = 65.1
RRH #2 → total luciferase, z-score = -0.239; total luciferase, % of control = 77.1; luciferase per cell, z-score = -0.498; viable cells, % of control = 98.3
RRH #3 → total luciferase, z-score = 0.0712; total luciferase, % of control = 83.3; luciferase per cell, z-score = -0.309; viable cells, % of control = 101
ONECUT1 #1 → total luciferase, z-score = 0.0283; total luciferase, % of control = 82.4; luciferase per cell, z-score = 0.956; viable cells, % of control = 71.6
ONECUT1 #2 → total luciferase, z-score = 0.138; total luciferase, % of control = 84.6; luciferase per cell, z-score = -0.106; viable cells, % of control = 97.2
ONECUT1 #3 → total luciferase, z-score = 2.52; total luciferase, % of control = 132; luciferase per cell, z-score = 1.76; viable cells, % of control = 92.9
